Results are given in words; binding and its absence hold for the method and conditions named. In cells and extracts the contact can be indirect. Some binding calls cover weakened binding; strength is not graded here. Sequences can lack the tags named with a protein.
Target: T1, full-size Xmas-2 N-terminally fused with three FLAG epitopes (D. melanogaster) (UniProt Q9U3V9)
T1 sequence: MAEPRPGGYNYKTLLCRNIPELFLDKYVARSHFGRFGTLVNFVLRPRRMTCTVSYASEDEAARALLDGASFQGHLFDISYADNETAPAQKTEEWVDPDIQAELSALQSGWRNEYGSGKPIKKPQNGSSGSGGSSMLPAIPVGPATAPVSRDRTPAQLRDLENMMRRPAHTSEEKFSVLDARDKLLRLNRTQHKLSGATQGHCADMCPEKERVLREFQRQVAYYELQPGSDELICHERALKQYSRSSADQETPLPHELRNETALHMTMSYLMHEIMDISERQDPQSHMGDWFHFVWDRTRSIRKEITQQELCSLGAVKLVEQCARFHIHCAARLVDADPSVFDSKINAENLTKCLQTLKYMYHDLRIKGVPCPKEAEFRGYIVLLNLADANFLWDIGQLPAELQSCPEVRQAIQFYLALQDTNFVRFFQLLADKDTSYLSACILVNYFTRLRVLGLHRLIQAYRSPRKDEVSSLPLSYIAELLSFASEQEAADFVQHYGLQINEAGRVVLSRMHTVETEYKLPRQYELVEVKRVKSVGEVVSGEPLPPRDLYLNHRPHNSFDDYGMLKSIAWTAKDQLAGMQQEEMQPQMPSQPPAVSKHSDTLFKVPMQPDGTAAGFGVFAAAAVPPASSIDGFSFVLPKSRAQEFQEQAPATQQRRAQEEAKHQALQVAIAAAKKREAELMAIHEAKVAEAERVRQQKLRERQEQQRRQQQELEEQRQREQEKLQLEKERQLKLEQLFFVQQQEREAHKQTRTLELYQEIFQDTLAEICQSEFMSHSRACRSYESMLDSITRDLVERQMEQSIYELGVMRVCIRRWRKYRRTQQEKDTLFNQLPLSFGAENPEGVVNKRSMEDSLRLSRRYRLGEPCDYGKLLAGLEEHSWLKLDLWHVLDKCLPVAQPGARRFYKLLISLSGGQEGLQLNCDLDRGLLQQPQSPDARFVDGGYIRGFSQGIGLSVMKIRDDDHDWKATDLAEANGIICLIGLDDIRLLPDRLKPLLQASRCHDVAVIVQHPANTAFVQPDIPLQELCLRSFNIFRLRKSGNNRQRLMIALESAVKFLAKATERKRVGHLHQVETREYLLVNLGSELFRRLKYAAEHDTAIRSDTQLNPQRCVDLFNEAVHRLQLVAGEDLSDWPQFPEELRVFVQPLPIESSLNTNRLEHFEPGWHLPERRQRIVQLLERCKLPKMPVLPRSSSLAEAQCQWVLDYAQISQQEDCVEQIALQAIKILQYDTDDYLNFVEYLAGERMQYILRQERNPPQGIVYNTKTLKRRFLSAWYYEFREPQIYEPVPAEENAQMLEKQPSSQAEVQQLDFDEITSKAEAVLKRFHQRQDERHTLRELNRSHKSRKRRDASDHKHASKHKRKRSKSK
Assay: co-IP; tagged PCID2 or PCID2^1-360 co-expressed with tagged Xmas-2 in S2 cells; lysate (0.4 M NaCl, 0.5% NP-40 buffer) pretreated with DNase I and RNase; precipitated with antibodies against the FLAG or HA epitope

B1: full-size PCID2 fused with the HA epitope (protein, UniProt Q9VTL1 1-395)
chain: MFGTVNNYLSGVLHAAQDLDGESLATYLSLRDVHVQNHNLYIAQPEKLVDRFLKPPLDEVVSAHLKVLYHLAQEPPGYMEAYTQQSAACGAVVRLLQQLKDENWCLPLMYRVCLDLRYLAQACEKHCQGFTPGHVLEKAADCIMACFRVCAADGRASEEDTKRLGMMNLVNQLFKIYFRINKLHLCKPLIRAIDNCIFKDSFPLPEQITYKYFVGRRAMFDSNYQAAVQYLSYAFSNCPDRFASNKRLILIYLVPVKMLLGYLPSKSLLQRYDLLLFLDLAMAMKAGNVNRFDEIVRDQELVLIRSGIYLLVEKLKFLVYRNLFKKVFVIRKSHQLDMGDFLSALHFVGLTDVSLDETHCIVANLIYDGKIKGYISHAHNKLVVSKQNPFPSVSL
In the case of B1, the binding is reported as “binds”.

B2: PCID2^1–360 fused with the HA epitope (domain or fragment, UniProt Q9VTL1 1-360)
chain: MFGTVNNYLSGVLHAAQDLDGESLATYLSLRDVHVQNHNLYIAQPEKLVDRFLKPPLDEVVSAHLKVLYHLAQEPPGYMEAYTQQSAACGAVVRLLQQLKDENWCLPLMYRVCLDLRYLAQACEKHCQGFTPGHVLEKAADCIMACFRVCAADGRASEEDTKRLGMMNLVNQLFKIYFRINKLHLCKPLIRAIDNCIFKDSFPLPEQITYKYFVGRRAMFDSNYQAAVQYLSYAFSNCPDRFASNKRLILIYLVPVKMLLGYLPSKSLLQRYDLLLFLDLAMAMKAGNVNRFDEIVRDQELVLIRSGIYLLVEKLKFLVYRNLFKKVFVIRKSHQLDMGDFLSALHFVGLTDVSLDETHC
B2 was tested, and the binding was “no binding”.

Reference: paper PMC10378293
